# Laboratory results as given in the supplement of paper PMC4962491.
# Counter-ions that a name gives are not always drawn. ± gives the standard deviation of the averaged measurements. The entries are a selection whose mix differs from that of the whole data set. Most values lie within the scatter of the assay; repeated measurements hardly agree. Peptide text beside a SMILES is read from it.
# System: FaDu
# Experiment: mitochondrial oxygen consumption rate normalised to cell number, Z score over the library; higher = higher oxygen consumption (negative = OCR reduction)
# Settings: treatment time 24 h, assay medium: 5 mM galactose, 5 mM pyruvate, 4 mM glutamine
# Experimental: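 Primary screen: FaDu cells were incubated 24 h with Pharmakon 1600 / TDI oncology set compounds at 2 or 10 uM. Mitochondrial-specific OCR (basal minus 2 uM antimycin A) was measured on a Seahorse XF96 in assay medium with 5 mM galactose, 5 mM pyruvate and 4 mM glutamine, then corrected for Hoechst cell number and expressed as a Z score […]. Compounds that cut cell number by >66% were excluded. Two repeats.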
Structure (SMILES),mitochondrial oxygen consumption rate normalised (2 µM),mitochondrial oxygen consumption rate normalised (10 µM)
CC(C)(CO)[C@@H](O)C(=O)NCCC(=O)O [PANTOTHENIC ACID(d) Na salt],1.16 ± 0.33,
O=C(O)c1ccc[n+]([O-])c1,-0.0161 ± 0.072,
NC[C@H]1O[C@H](O[C@H]2[C@H](O)[C@@H](O[C@H]3O[C@H](CO)[C@@H](O)[C@H](N)[C@H]3O)[C@H](N)C[C@@H]2N)[C@H](N)C[C@@H]1O,0.138 ± 0.066,
CCOC(=O)Nc1nc2ccccc2[nH]1,-0.438 ± 0.052,
CC(C)[N+]1(C)[C@@H]2CC[C@H]1C[C@@H](OC(=O)C(CO)c1ccccc1)C2 (some centres not stated),0.772 ± 0.15,
Cc1ccc(-c2cc(C(F)(F)F)nn2-c2ccc(S(N)(=O)=O)cc2)cc1,0.564 ± 1.7,
Cc1ccc(-c2cc(C(F)(F)F)nn2-c2ccc(S(N)(=O)=O)cc2)cc1 [Celecoxib],0.7658 ± 0.005,
Nc1ccc(S(=O)(=O)Nc2nccs2)cc1,-1.01 ± 0.35,
CN[C@H]1CC[C@@H](c2ccc(Cl)c(Cl)c2)c2ccccc21,-0.314 ± 0.79,
CC[C@H]1OC(=O)[C@H](C)[C@@H](O[C@H]2C[C@@](C)(OC)[C@@H](O)[C@H](C)O2)[C@H](C)[C@@H](O[C@@H]2O[C@H](C)C[C@H](N(C)C)[C@H]2O)[C@](C)(O)C[C@@H](C)CN(C)[C@H](C)[C@@H](O)[C@]1(C)O,0.241 ± 1.8,
CCCCCCOc1ccccc1C(N)=O,-0.126 ± 0.21,
NC[C@H](O)c1ccc(O)c(O)c1,0.567 ± 0.44,
CCN(CC)CCNC(=O)c1ccc(N)cc1,-0.12 ± 0.026,
O=C(O)C1=C(CSc2nnnn2CS(=O)(=O)O)CS[C@@H]2[C@H](NC(=O)[C@H](O)c3ccccc3)C(=O)N12,-0.712 ± 0.12,
O=C(CCCl)NCCc1ccccc1,0.7 ± 1,
CC(C)Oc1ccc2c(=O)c(-c3ccccc3)coc2c1,-0.13 ± 0.18,
CC(=O)Nc1nnc(S(N)(=O)=O)s1,0.734 ± 0.52,
CC(=O)Nc1c(I)cc(I)c(C(=O)O)c1I,1.09 ± 1.1,
Cc1cc2cc3c(C)cc(=O)oc3c(C)c2o1,-0.219 ± 0.42,
CCCCOc1cc(C(=O)OCCN(CC)CC)ccc1N,0.34 ± 0.17,
C[N+](C)(C)CC(O)CC(=O)[O-] (configuration not stated),-0.695 ± 0.23,
COC(=O)[C@H](Cc1ccccc1)NC(=O)[C@@H](N)CC(=O)O (H-Asp-Phe-OMe),0.939 ± 0.71,
CO/N=C(\C(=O)N[C@@H]1C(=O)N2C(C(=O)O)=C(COC(C)=O)CS[C@H]12)c1csc(N)n1,0.928 ± 0.49,
O=C(NCCCN1CCOCC1)c1ccc(Cl)cc1,0.598 ± 0.27,
COc1cc(CNC(=O)CCCC/C=C/C(C)C)ccc1O,0.255 ± 0.27,
C[C@]12CC[C@@H]3c4ccc(O)cc4C[C@@H](CCCCCCCCC[S+]([O-])CCCC(F)(F)C(F)(F)F)[C@H]3[C@@H]1CC[C@@H]2O (some centres not stated),0.669 ± 1.3,

Structure (SMILES),mitochondrial oxygen consumption rate normalised (2 µM),mitochondrial oxygen consumption rate normalised (10 µM)
COc1ccc(-c2ccc3cc(C(=O)O)ccc3c2)cc1C12CC3CC(CC(C3)C1)C2,-0.151 ± 0.26,
CCN1CCCC1CNC(=O)c1cc(S(N)(=O)=O)ccc1OC (configuration not stated),0.272 ± 0.4,
N[C@@H](COP(=O)(O)O)C(=O)O,0.689 ± 1.4,
Cc1cccc(N(C)C(=S)Oc2ccc3ccccc3c2)c1,0.186 ± 0.12,
O=c1[nH]c(=O)n([C@H]2C[C@H](O)[C@@H](CO)O2)cc1I,1.73 ± 0.48,
CCCCc1oc2ccccc2c1C(=O)c1cc(I)c(OCCN(CC)CC)c(I)c1,0.701 ± 0.032,
O=C(O)c1cccnc1,0.431 ± 0.04,
CCC(=O)OCC(=O)[C@@]1(OC(=O)CC)[C@@H](C)C[C@H]2[C@@H]3CCC4=CC(=O)C=C[C@]4(C)[C@@]3(F)[C@@H](O)C[C@@]21C,0.287 ± 0.33,
CC1(C)O[C@@H]2C[C@H]3[C@@H]4C[C@H](F)C5=CC(=O)CC[C@]5(C)[C@H]4[C@@H](O)C[C@]3(C)[C@]2(C(=O)CO)O1,-0.256 ± 0.57,
NNC(=O)c1ccncc1,-0.733 ± 0.55,
CN1CCCN=C1/C=C/c1cccs1,-0.789 ± 0.38,
CCC[C@@H]1C[C@@H](C(=O)N[C@@H]([C@H]2O[C@H](SC)[C@H](O)[C@@H](O)[C@H]2O)[C@@H](C)O)N(C)C1,-0.898 ± 0.38,
CCCCC(CC)COc1ccc(-c2nc(-c3ccc(OC)cc3)nc(-c3ccc(OCC(CC)CCCC)cc3O)n2)c(O)c1 (configuration not stated),0.579 ± 1.4,0.282 ± 0.45
O=c1cc[nH]c(=O)[nH]1,1.05 ± 0.88,
CCOc1ccc(Cc2nccc3cc(OCC)c(OCC)cc23)cc1OCC,-0.998 ± 0.28,
O=C(Nc1ccc([N+](=O)[O-])cc1Cl)c1cc(Cl)ccc1O,2.08 ± 1.6,
C#C[C@]1(O)CC[C@H]2[C@@H]3CCC4=Cc5oncc5C[C@]4(C)[C@H]3CC[C@@]21C,-0.078 ± 1.4,
Nc1ccc(S(=O)(=O)O)cc1.Nc1ccc(S(=O)(=O)O)cc1.[Zn],0.922 ± 1.1,1.04 ± 0.43
CC12CC3CC(C)(C1)CC(N)(C3)C2,0.00395 ± 0.27,
CN1C(C(=O)Nc2ccccn2)=C(O)c2sc(Cl)cc2S1(=O)=O,0.313 ± 1.3,
C[N+](C)(C)C[C@H](O)CC(=O)[O-],-0.0736 ± 0.65,
CC(CN(C)C)CN1c2ccccc2CCc2ccccc21 (configuration not stated),-0.465 ± 0.14,
OC(CCN1CCCC1)(c1ccccc1)C1CCCCC1 (configuration not stated),0.205 ± 0.051,
CC(C)NCC(O)COc1cccc2[nH]ccc12 (configuration not stated),1.56 ± 2.1,
CC(C)(C)CC(C)(C)c1ccc(OCCOCC[N+](C)(C)Cc2ccccc2)cc1,-4.121 ± 0.028,
Cn1nnc2c(C(N)=O)ncn2c1=O,0.0541 ± 0.22,

# Looked up above.
# Value for CCOc1ccc(Cc2nccc3cc(OCC)c(OCC)cc23)cc1OCC under mitochondrial oxygen consumption rate normalised (2 µM): -0.998 ± 0.28
# Value for CCN1CCCC1CNC(=O)c1cc(S(N)(=O)=O)ccc1OC (configuration not stated) under mitochondrial oxygen consumption rate normalised (2 µM): 0.272 ± 0.4
# Value for C[N+](C)(C)C[C@H](O)CC(=O)[O-] under mitochondrial oxygen consumption rate normalised (2 µM): -0.0736 ± 0.65
# Value for C#C[C@]1(O)CC[C@H]2[C@@H]3CCC4=Cc5oncc5C[C@]4(C)[C@H]3CC[C@@]21C under mitochondrial oxygen consumption rate normalised (2 µM): -0.078 ± 1.4
# Value for O=C(Nc1ccc([N+](=O)[O-])cc1Cl)c1cc(Cl)ccc1O under mitochondrial oxygen consumption rate normalised (2 µM): 2.08 ± 1.6

# More records

Structure (SMILES),mitochondrial oxygen consumption rate normalised (2 µM),mitochondrial oxygen consumption rate normalised (10 µM)
Cn1nnc2c(C(N)=O)ncn2c1=O [Temozolomide],0.713 ± 0.019,
CN1[C@@H]2CC[C@H]1C[C@@H](OC(=O)C(O)c1ccccc1)C2 (some centres not stated),-0.31 ± 0.75,
CCCCOc1ccc(C(=O)CCN2CCCCC2)cc1,-0.0554 ± 0.73,-0.0802 ± 0.69
C=C1CC[C@H](O)C/C1=C/C=C1\CCC[C@]2(C)[C@@H]([C@H](C)/C=C/[C@H](C)C(C)C)CC[C@@H]12,-0.572 ± 0.85,
Nc1nc(N)c2nc(-c3ccccc3)c(N)nc2n1,0.731 ± 0.33,
CC(C)(C)NC(=O)[C@H]1CC[C@H]2[C@@H]3CC[C@H]4NC(=O)C=C[C@]4(C)[C@H]3CC[C@]12C,-0.345 ± 0.45,
Cc1c(Nc2ncccc2C(=O)O)cccc1C(F)(F)F,0.402 ± 1.4,
CC[C@H](c1ccc(O)cc1)[C@@H](CC)c1ccc(O)cc1,-0.861 ± 0.15,
CC(=O)OCC(=O)[C@@]1(O)CC[C@H]2[C@@H]3CCC4=CC(=O)C=C[C@]4(C)[C@H]3[C@@H](O)C[C@@]21C,0.239 ± 0.25,
C[C@]12CCC(=O)C=C1CC[C@@H]1[C@@H]2[C@@H](O)C[C@@]2(C)[C@H]1CC[C@]2(O)C(=O)COP(=O)(O)O,-0.254 ± 0.21,
CC1(C)O[C@@H]2C[C@H]3[C@@H]4C[C@H](F)C5=CC(=O)C=C[C@]5(C)[C@H]4[C@@H](O)C[C@]3(C)[C@]2(C(=O)CO)O1,1.62 ± 0.97,
C[C@H](CS)C(=O)N1CCC[C@H]1C(=O)O,0.771 ± 0.24,
CN(Cc1cc(Br)cc(Br)c1N)C1CCCCC1,0.619 ± 0.32,
NCCc1ccc(O)c(O)c1,-0.836 ± 0.97,
CCOC(=O)CC(=O)N1CCSC1COc1ccccc1OC (configuration not stated),-0.889 ± 0.56,
CC(=O)Oc1ccc(C(c2ccc(OC(C)=O)cc2)c2ccccn2)cc1,0.134 ± 0.01,
CCC(C)(C)C(=O)O[C@H]1C[C@@H](C)C=C2C=C[C@H](C)[C@H](CC[C@@H]3C[C@@H](O)CC(=O)O3)[C@H]21,0.506 ± 1.2,
C[C@@H]1CN(c2c(F)c(F)c3c(=O)c(C(=O)O)cn(C4CC4)c3c2F)C[C@H](C)N1,0.104 ± 0.0086,
NNC(=O)c1ccncc1.Nc1ccc(C(=O)O)c(O)c1,-0.765 ± 0.32,
CC(O)(CC(=O)O)CC(=O)O,1.24 ± 0.54,
CCCc1nn(C)c2c(=O)[nH]c(-c3cc(S(=O)(=O)N4CCN(C)CC4)ccc3OCC)nc12,0.477 ± 0.56,
O=[N+]([O-])c1ccc(O)c2ncccc12,0.474 ± 0.078,-2.21 ± 0.14
NC1CCN(c2c(F)cc3c(=O)c(C(=O)O)cn(C4CC4)c3c2Cl)C1 (configuration not stated),-0.146 ± 0.91,
CC(=O)Nc1ccc(OC(C)=O)cc1,0.372 ± 0.65,
CCC1(C)CC(=O)NC1=O (configuration not stated),0.0384 ± 0.26,
CC(NCCc1ccc(O)cc1)C(O)c1ccc(O)cc1 (configuration not stated),0.572 ± 0.11,

Structure (SMILES),mitochondrial oxygen consumption rate normalised (2 µM),mitochondrial oxygen consumption rate normalised (10 µM)
CCCNC(C)(C)COC(=O)c1ccccc1,-0.403 ± 0.22,
O=S(=O)(c1cccc2cnccc12)N1CCCNCC1,0.105 ± 0.29,
CCc1nn(CCCN2CCN(c3cccc(Cl)c3)CC2)c(=O)n1CCOc1ccccc1,0.803 ± 0.83,
Nc1nc(/C(=C/CC(=O)O)C(=O)N[C@@H]2C(=O)N3C(C(=O)O)=CCS[C@H]23)cs1,0.329 ± 1.4,
NCCCS(=O)(=O)O,0.496 ± 0.0095,
CCC(=O)O[C@]1(C(=O)SCF)[C@H](C)C[C@H]2[C@@H]3C[C@H](F)C4=CC(=O)C=C[C@]4(C)[C@@]3(F)[C@@H](O)C[C@@]21C,0.0879 ± 1.8,
C[C@H](N[C@@H](CCc1ccccc1)C(=O)O)C(=O)N1Cc2ccccc2C[C@H]1C(=O)O,0.628 ± 1.2,
Nc1ccc(/N=N/c2ccccc2)c(N)n1,-1.02 ± 0.71,
CN(C)CCOC(=O)C(c1ccccc1)C1(O)CCCC1 (configuration not stated),-0.414 ± 1.6,
CCc1cc(Cl)c(OC)c(C(=O)NC[C@@H]2CCCN2CC)c1O,-1.29 ± 0.25,
Clc1ccc(C(c2ccccc2Cl)C(Cl)Cl)cc1 (configuration not stated) [Mitotane;  o;p'-DDD],0.258 ± 0.31,
Clc1ccc(C(c2ccccc2Cl)C(Cl)Cl)cc1 (configuration not stated),0.26 ± 0.45,
O=C1O[C@H]([C@@H](O)CO)C(O)=C1O,0.715 ± 0.17,
CC(=O)Nc1ccc(S(=O)(=O)c2ccc(NC(C)=O)cc2)cc1,-0.481 ± 0.99,
OCCc1ccccc1,0.82 ± 0.87,
O=C(O)c1ccccc1Nc1cccc(C(F)(F)F)c1,-0.00453 ± 0.27,
Nc1ccc(C(=O)O)c(O)c1,0.672 ± 0.98,
CCOC(N)=O,-0.265 ± 0.019,
O=C1c2cccc(O)c2C(=O)c2c(O)cccc21,-0.108 ± 1.1,
CSCC[C@H](NC(=O)[C@H](Cc1c[nH]c2ccccc12)NC(=O)CCNC(=O)OC(C)(C)C)C(=O)N[C@@H](CC(=O)O)C(=O)N[C@@H](Cc1ccccc1)C(N)=O,0.561 ± 1.5,
CC(C)NNC(=O)c1ccncc1,-0.238 ± 0.14,
OC(CCN1CCCCC1)(c1ccccc1)c1ccccc1,-0.959 ± 0.83,
CCCCC(=O)N(Cc1ccc(-c2ccccc2-c2nnn[nH]2)cc1)[C@H](C(=O)O)C(C)C,-0.408 ± 0.51,
CCN(CC)CCNC(=O)c1cc(Br)c(N)cc1OC,-0.682 ± 0.13,
Cc1ccc(Nc2nccc(N(C)c3ccc4c(C)n(C)nc4c3)n2)cc1S(N)(=O)=O [Pazopanib HCl],0.605 ± 0.26,
